# In the supplement of paper PMC6411743:
# Chains of the proteins cited; added tags and fusions are not shown. Lines headed by an entry give the natural chain unless they say otherwise; changes in a name come on top.
# UniProt Q6PII3: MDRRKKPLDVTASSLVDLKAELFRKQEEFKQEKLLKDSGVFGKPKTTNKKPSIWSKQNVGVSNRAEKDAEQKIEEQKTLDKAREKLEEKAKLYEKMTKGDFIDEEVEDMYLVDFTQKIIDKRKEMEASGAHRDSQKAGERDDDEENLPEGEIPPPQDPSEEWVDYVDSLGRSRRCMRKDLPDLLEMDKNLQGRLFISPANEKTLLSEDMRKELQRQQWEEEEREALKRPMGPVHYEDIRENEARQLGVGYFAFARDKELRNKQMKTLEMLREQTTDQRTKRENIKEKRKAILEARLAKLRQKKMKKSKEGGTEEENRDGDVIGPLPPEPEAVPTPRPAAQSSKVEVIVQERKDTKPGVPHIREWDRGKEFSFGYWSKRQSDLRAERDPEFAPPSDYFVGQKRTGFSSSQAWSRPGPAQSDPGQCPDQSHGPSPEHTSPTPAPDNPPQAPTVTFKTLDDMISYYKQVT
# UniProt Q9HBG7: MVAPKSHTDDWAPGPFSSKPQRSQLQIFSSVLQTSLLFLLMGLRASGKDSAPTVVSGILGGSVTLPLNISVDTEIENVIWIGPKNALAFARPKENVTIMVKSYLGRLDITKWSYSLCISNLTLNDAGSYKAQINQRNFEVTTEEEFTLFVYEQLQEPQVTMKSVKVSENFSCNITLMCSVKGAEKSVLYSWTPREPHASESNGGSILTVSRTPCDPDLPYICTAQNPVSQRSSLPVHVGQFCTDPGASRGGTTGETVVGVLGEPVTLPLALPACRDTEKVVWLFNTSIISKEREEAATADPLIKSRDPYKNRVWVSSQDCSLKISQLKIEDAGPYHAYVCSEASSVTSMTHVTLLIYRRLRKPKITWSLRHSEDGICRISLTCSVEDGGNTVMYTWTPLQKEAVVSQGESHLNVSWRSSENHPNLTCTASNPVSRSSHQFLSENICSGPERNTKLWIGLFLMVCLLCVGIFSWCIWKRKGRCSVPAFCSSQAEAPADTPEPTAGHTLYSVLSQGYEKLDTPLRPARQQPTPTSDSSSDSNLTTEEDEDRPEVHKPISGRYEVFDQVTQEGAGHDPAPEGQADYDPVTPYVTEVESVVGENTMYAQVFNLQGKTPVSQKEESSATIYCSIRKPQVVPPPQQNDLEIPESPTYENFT
# UniProt Q9UGV2: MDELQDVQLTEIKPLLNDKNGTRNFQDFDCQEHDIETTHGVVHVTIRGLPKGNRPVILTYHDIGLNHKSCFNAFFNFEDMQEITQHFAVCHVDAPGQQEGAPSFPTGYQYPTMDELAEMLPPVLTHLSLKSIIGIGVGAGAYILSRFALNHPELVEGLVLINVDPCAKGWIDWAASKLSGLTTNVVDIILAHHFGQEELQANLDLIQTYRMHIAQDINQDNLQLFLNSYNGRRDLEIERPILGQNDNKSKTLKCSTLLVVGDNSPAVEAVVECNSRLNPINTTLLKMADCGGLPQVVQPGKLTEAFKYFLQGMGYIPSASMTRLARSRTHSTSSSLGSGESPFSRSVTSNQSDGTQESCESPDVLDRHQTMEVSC
# UniProt Q6ZN18: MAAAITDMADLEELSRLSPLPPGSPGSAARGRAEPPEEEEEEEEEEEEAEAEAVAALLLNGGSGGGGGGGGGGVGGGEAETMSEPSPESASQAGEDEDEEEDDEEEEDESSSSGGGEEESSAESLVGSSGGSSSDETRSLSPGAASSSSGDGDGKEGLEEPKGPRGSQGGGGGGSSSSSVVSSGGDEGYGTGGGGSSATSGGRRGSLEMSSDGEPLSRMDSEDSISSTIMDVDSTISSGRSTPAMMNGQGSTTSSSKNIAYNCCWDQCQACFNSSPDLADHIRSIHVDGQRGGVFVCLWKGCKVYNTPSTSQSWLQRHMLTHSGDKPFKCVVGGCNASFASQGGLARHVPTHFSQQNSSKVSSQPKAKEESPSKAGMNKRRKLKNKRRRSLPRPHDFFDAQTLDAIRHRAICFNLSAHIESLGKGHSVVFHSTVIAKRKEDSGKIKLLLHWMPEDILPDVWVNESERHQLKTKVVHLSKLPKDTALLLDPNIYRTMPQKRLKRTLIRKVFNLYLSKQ
# UniProt Q6R327, whole entry: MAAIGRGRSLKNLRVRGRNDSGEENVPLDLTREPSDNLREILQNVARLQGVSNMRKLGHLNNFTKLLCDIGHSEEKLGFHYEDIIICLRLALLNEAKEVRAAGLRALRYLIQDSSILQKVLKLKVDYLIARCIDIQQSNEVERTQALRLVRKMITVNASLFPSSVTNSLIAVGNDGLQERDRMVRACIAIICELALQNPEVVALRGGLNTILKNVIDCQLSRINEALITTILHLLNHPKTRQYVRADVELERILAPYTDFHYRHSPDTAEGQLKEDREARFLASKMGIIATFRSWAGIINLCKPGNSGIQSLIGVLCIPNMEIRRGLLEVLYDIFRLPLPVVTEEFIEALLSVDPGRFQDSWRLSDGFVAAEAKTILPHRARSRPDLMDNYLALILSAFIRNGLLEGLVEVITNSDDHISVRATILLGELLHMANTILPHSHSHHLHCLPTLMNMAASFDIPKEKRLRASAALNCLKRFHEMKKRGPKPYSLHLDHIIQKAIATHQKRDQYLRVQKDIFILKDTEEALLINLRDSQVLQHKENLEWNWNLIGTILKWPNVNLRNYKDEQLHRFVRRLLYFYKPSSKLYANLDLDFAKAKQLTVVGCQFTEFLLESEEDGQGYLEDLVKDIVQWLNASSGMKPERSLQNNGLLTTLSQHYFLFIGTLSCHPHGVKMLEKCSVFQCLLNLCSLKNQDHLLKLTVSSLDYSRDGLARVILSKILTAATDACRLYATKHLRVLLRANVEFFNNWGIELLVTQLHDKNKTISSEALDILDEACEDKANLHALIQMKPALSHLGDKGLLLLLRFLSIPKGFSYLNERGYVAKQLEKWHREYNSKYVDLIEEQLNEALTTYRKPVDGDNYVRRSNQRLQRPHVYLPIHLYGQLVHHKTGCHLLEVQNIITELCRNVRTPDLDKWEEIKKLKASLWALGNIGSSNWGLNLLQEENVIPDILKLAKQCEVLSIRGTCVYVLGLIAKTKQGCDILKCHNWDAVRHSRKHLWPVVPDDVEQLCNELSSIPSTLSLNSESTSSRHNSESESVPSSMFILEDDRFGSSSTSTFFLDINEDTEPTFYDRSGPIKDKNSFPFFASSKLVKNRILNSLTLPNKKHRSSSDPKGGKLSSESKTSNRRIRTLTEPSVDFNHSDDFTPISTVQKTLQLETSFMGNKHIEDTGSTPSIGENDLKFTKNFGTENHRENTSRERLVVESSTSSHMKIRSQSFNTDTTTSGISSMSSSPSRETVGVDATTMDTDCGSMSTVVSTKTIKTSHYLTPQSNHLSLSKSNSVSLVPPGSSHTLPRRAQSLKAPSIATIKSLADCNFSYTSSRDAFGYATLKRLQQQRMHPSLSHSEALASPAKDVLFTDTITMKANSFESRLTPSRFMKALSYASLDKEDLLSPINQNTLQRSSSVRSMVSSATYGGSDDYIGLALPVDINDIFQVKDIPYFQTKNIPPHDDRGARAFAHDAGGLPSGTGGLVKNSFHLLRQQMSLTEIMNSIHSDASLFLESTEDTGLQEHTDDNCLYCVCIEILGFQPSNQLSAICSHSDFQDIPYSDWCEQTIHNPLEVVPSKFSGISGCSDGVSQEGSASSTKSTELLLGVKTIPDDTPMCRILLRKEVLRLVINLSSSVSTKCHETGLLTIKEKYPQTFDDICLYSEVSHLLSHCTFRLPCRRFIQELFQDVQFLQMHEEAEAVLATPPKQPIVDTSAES
# UniProt Q7KZF4: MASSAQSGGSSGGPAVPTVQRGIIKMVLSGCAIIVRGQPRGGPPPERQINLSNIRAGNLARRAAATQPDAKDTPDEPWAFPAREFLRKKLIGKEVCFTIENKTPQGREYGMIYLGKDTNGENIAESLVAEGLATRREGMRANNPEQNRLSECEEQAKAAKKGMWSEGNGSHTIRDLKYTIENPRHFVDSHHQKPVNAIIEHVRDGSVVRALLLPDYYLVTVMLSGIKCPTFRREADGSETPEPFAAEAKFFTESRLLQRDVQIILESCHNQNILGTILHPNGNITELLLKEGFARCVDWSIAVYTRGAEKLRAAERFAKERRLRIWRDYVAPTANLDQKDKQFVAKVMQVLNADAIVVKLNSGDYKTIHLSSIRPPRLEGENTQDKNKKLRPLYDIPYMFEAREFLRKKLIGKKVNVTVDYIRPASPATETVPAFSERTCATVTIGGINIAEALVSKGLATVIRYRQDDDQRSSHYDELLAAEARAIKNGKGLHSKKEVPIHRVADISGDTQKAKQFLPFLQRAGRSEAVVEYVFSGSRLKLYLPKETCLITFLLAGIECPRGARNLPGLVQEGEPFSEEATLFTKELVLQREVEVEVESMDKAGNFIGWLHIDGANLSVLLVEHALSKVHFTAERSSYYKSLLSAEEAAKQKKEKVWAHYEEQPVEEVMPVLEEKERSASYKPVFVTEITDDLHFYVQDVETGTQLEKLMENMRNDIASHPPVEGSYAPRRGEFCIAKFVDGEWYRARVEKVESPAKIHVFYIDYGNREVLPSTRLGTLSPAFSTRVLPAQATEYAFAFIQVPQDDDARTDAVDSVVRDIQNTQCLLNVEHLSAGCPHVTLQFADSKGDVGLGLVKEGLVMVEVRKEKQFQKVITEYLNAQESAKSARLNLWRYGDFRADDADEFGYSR
# UniProt Q86UE4: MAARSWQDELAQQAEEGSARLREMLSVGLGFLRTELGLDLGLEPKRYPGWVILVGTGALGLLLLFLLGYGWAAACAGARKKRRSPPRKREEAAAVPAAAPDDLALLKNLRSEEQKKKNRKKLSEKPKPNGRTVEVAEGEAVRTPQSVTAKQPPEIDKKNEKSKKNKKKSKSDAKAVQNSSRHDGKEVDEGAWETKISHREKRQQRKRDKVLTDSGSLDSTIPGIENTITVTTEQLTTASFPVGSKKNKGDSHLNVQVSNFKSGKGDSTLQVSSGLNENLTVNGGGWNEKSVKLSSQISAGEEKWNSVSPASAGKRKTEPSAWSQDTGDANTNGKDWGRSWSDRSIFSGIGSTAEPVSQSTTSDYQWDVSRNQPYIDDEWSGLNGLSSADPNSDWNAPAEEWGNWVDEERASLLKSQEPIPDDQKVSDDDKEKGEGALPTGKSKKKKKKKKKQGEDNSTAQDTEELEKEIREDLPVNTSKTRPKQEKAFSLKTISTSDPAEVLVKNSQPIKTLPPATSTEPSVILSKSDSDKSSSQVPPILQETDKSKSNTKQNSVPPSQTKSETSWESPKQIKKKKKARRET
# UniProt Q66PJ3: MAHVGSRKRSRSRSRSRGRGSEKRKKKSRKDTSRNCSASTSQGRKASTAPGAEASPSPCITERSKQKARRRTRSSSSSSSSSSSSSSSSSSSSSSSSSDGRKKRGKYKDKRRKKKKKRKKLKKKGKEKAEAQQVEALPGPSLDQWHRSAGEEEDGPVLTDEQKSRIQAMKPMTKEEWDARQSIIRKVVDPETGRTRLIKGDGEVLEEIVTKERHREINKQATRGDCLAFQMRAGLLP
# UniProt Q6PJ61: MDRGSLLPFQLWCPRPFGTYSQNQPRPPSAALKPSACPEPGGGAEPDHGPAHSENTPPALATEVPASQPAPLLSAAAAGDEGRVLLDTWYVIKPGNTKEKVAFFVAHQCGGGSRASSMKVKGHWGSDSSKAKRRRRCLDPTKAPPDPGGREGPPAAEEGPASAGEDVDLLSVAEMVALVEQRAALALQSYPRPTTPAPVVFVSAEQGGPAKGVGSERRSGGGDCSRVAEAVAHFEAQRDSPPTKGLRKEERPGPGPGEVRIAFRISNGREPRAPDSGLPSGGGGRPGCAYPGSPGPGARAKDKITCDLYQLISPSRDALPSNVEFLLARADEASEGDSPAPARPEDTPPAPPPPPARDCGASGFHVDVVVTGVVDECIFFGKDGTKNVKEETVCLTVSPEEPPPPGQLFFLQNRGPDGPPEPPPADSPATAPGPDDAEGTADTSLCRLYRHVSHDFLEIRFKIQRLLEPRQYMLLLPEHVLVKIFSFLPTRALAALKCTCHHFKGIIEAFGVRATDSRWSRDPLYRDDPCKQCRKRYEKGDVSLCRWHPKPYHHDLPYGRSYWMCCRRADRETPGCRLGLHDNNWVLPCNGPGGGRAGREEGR
# UniProt Q7Z3B4: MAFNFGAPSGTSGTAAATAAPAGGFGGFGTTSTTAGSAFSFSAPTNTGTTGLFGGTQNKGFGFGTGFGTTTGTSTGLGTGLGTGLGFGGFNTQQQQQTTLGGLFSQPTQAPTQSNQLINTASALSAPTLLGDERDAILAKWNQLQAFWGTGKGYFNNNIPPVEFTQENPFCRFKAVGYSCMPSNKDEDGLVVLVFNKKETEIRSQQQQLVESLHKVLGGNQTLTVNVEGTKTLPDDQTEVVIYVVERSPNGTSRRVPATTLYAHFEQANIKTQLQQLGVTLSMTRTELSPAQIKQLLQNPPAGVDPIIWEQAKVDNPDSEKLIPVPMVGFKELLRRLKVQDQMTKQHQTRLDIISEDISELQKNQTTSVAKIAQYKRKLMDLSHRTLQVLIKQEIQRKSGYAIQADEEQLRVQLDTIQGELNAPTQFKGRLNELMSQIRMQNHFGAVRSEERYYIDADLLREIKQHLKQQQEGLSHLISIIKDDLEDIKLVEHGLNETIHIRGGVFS
# ± gives the standard deviation of the averaged measurements. This is one part of the list.
# Compound: Nc1nc2c(ncn2[C@@H]2O[C@H](COP(=O)(O)OP(=O)(O)OP(=O)(O)O)[C@@H](O)[C@H]2O)c(=O)[nH]1 [guanosine triphosphate]
# Assay: NP40-soluble protein abundance relative to vehicle (solubility fold change) (ratio); higher = more soluble protein in presence of GTP
# Summary of the method: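 Each value is a fold change relative to the detergent-processed vehicle, calculated per replicate from vsn-normalised intensities. Jurkat crude lysate received eight concentrations (0.1 to 10 mM) for 10 min at room temperature and 3 min at 37 °C, then was solubilised in 0.8% NP40 with benzonase (60 min, 4 °C). The ultracentrifuged supernatant was TMT-labelled and run by LC-MS/MS in three independent experiments.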
Target,NP40-soluble protein abundance (concentration: 0.1mM),NP40-soluble protein abundance (concentration: 0.5mM),NP40-soluble protein abundance (concentration: 1mM),NP40-soluble protein abundance (concentration: 2mM),NP40-soluble protein abundance (concentration: 4mM),NP40-soluble protein abundance (concentration: 6mM),NP40-soluble protein abundance (concentration: 8mM),NP40-soluble protein abundance (concentration: 10mM)
UniProt Q6PII3 and related entries,0.938 ± 0.051,0.976 ± 0.084,0.957 ± 0.045,0.928 ± 0.063,0.878 ± 0.083,0.974 ± 0.082,0.977 ± 0.075,1 ± 0.064
UniProt Q5VZL5 and related entries,1.04 ± 0.063,1.09 ± 0.051,1.12 ± 0.04,1.2 ± 0.075,1.26 ± 0.076,1.3 ± 0.058,1.43 ± 0.16,1.51 ± 0.14
Q5VYH9 and related entries (UniProt Q9HBG7),0.905 ± 0.18,0.798 ± 0.16,0.853 ± 0.23,0.772 ± 0.22,0.773 ± 0.13,0.736 ± 0.2,0.784 ± 0.18,0.766 ± 0.19
UniProt Q6KC79 and related entries,1.01 ± 0.021,1.042 ± 0.009,1.04 ± 0.039,1.1 ± 0.043,1.1 ± 0.053,1.15 ± 0.093,1.16 ± 0.1,1.15 ± 0.091
UniProt Q6F5E8 and related entries,1.14 ± 0.027,1.09 ± 0.025,1.15 ± 0.04,1.26 ± 0.05,1.37 ± 0.11,1.35 ± 0.1,1.41 ± 0.12,1.41 ± 0.12
UniProt Q6UXH1 and related entries,0.968 ± 0.018,0.941 ± 0.046,1.03 ± 0.09,0.959 ± 0.093,0.935 ± 0.096,0.959 ± 0.12,0.95 ± 0.061,0.956 ± 0.088
Q5TH30 and related entries (UniProt Q9UGV2),0.97 ± 0.092,0.953 ± 0.058,0.965 ± 0.084,0.884 ± 0.043,0.917 ± 0.1,0.893 ± 0.08,0.941 ± 0.095,0.874 ± 0.065
UniProt Q7Z406 and related entries,0.995 ± 0.065,1.04 ± 0.13,0.902 ± 0.092,0.954 ± 0.11,0.97 ± 0.051,0.959 ± 0.044,0.922 ± 0.069,0.819 ± 0.038
UniProt Q68E01 and related entries,1.01 ± 0.028,1.01 ± 0.026,1.03 ± 0.027,1.03 ± 0.03,1.08 ± 0.026,1.12 ± 0.053,1.11 ± 0.036,1.11 ± 0.021
UniProt Q63HQ0,0.923 ± 0.075,0.935 ± 0.056,0.951 ± 0.099,0.911 ± 0.13,1.02 ± 0.16,0.961 ± 0.12,0.952 ± 0.091,0.972 ± 0.11
UniProt Q86U38,1.15 ± 0.21,1.17 ± 0.24,1.26 ± 0.36,1.19 ± 0.29,1.28 ± 0.37,1.35 ± 0.42,1.3 ± 0.27,1.37 ± 0.41
UniProt Q6ZN18 and related entries,1.02 ± 0.17,1.07 ± 0.08,1.08 ± 0.12,1.01 ± 0.37,1.07 ± 0.02,1.04 ± 0.085,1.11 ± 0.16,1.01 ± 0.31
UniProt Q6R327 and related entries,1.05 ± 0.061,1.1 ± 0.072,1.17 ± 0.033,1.12 ± 0.12,1.18 ± 0.059,1.18 ± 0.073,1.19 ± 0.089,1.1 ± 0.1
CWF19L1 (UniProt Q69YN2),0.987 ± 0.015,0.991 ± 0.052,0.926 ± 0.025,0.924 ± 0.023,0.922 ± 0.013,0.907 ± 0.024,0.898 ± 0.052,0.879 ± 0.049
WDR73 (UniProt Q6P4I2),1.02 ± 0.094,1.02 ± 0.18,0.928 ± 0.087,0.904 ± 0.13,0.893 ± 0.12,0.904 ± 0.092,0.89 ± 0.1,0.851 ± 0.15
SND1 (UniProt Q7KZF4),1.01 ± 0.026,1.03 ± 0.023,0.996 ± 0.02,1.04 ± 0.038,1.12 ± 0.043,1.18 ± 0.033,1.2 ± 0.063,1.2 ± 0.097

Target,NP40-soluble protein abundance (concentration: 0.1mM),NP40-soluble protein abundance (concentration: 0.5mM),NP40-soluble protein abundance (concentration: 1mM),NP40-soluble protein abundance (concentration: 2mM),NP40-soluble protein abundance (concentration: 4mM),NP40-soluble protein abundance (concentration: 6mM),NP40-soluble protein abundance (concentration: 8mM),NP40-soluble protein abundance (concentration: 10mM)
MTDH (UniProt Q86UE4),1.02 ± 0.054,1.01 ± 0.061,1.12 ± 0.059,1.2 ± 0.1,1.34 ± 0.11,1.41 ± 0.13,1.5 ± 0.16,1.54 ± 0.2
UniProt Q6P587 and related entries,0.936 ± 0.056,0.933 ± 0.022,0.915 ± 0.023,0.796 ± 0.01,0.865 ± 0.071,0.858 ± 0.092,0.829 ± 0.026,0.843 ± 0.083
UniProt Q5VSL9,1 ± 0.03,1 ± 0.041,1.05 ± 0.023,1.08 ± 0.038,1.09 ± 0.044,1.06 ± 0.021,1.14 ± 0.047,1.13 ± 0.057
UniProt Q86U86 and related entries,1.07 ± 0.048,1.14 ± 0.078,1.21 ± 0.092,1.38 ± 0.11,1.53 ± 0.12,1.61 ± 0.16,1.72 ± 0.16,1.78 ± 0.18
TTC27 (UniProt Q6P3X3),1.03 ± 0.025,0.999 ± 0.038,0.9425 ± 0.0021,0.971 ± 0.049,0.97 ± 0.051,0.908 ± 0.011,0.946 ± 0.011,0.893 ± 0.034
UniProt Q66PJ3 and related entries,0.994 ± 0.095,1.03 ± 0.12,1.05 ± 0.12,0.995 ± 0.18,0.912 ± 0.12,0.879 ± 0.13,0.935 ± 0.094,0.974 ± 0.094
UniProt Q6P996 and related entries,1.01 ± 0.04,1.01 ± 0.056,1.03 ± 0.055,0.932 ± 0.032,0.967 ± 0.049,0.962 ± 0.048,0.978 ± 0.06,0.956 ± 0.065
Q5TDE7 and related entries (UniProt Q5VTB9),1.02 ± 0.15,0.909 ± 0.13,0.908 ± 0.12,0.938 ± 0.24,0.987 ± 0.13,0.97 ± 0.17,0.968 ± 0.086,0.909 ± 0.13
NXN (UniProt Q6DKJ4),1.07 ± 0.082,1.04 ± 0.044,1.05 ± 0.064,0.994 ± 0.071,0.969 ± 0.068,1.01 ± 0.04,1 ± 0.092,0.925 ± 0.043
FBXO46 (UniProt Q6PJ61),1.06 ± 0.12,1.06 ± 0.08,1.06 ± 0.18,1.06 ± 0.12,1.06 ± 0.17,1.02 ± 0.27,1.09 ± 0.21,1.2 ± 0.29
LYRM7 (UniProt Q5U5X0),0.867 ± 0.019,0.89 ± 0.056,1.004 ± 0.0052,1.03 ± 0.11,0.968 ± 0.079,0.989 ± 0.11,0.851 ± 0.084,0.986 ± 0.08
UniProt Q6SJ93 and related entries,1.06 ± 0.15,1.08 ± 0.095,0.936 ± 0.037,0.971 ± 0.07,1.01 ± 0.049,0.969 ± 0.1,0.969 ± 0.15,0.88 ± 0.024
UniProt Q7Z3B4 and related entries,1.02 ± 0.051,1 ± 0.021,1 ± 0.038,1.01 ± 0.032,1.06 ± 0.062,1.07 ± 0.065,1.12 ± 0.055,1.18 ± 0.092
KCTD9 (UniProt Q7L273),0.98 ± 0.1,1.1 ± 0.12,0.962 ± 0.059,0.997 ± 0.031,0.974 ± 0.099,1 ± 0.082,1.02 ± 0.11,1.01 ± 0.052
BLOC1S3 (UniProt Q6QNY0),0.942 ± 0.0097,0.958 ± 0.078,1.11 ± 0.048,1.1 ± 0.072,1.08 ± 0.043,1.09 ± 0.029,1.04 ± 0.15,1.07 ± 0.032
UniProt Q7L0J3 and related entries,1.06 ± 0.066,1.07 ± 0.036,1.02 ± 0.05,1.05 ± 0.019,1.07 ± 0.043,1.05 ± 0.03,1.05 ± 0.028,1.01 ± 0.067

# Part of the list above, as tab-separated lines:
Target	NP40-soluble protein abundance (concentration: 0.1mM)	NP40-soluble protein abundance (concentration: 0.5mM)	NP40-soluble protein abundance (concentration: 1mM)	NP40-soluble protein abundance (concentration: 2mM)	NP40-soluble protein abundance (concentration: 4mM)	NP40-soluble protein abundance (concentration: 6mM)	NP40-soluble protein abundance (concentration: 8mM)	NP40-soluble protein abundance (concentration: 10mM)
UniProt Q6UXH1 and related entries	0.968 ± 0.018	0.941 ± 0.046	1.03 ± 0.09	0.959 ± 0.093	0.935 ± 0.096	0.959 ± 0.12	0.95 ± 0.061	0.956 ± 0.088
UniProt Q7Z406 and related entries	0.995 ± 0.065	1.04 ± 0.13	0.902 ± 0.092	0.954 ± 0.11	0.97 ± 0.051	0.959 ± 0.044	0.922 ± 0.069	0.819 ± 0.038
